Measured data: PubChem BioAssay AID743458 (Peter MacCallum Cancer Centre, 2014)
Test: 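Identify genes whose loss lifts vorinostat resistance in colon cancer cells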 (follow-up of hits). System: human HCT116-VR colon cancer cells made resistant to vorinostat. Reagent: single siRNA or pool against human genes, 25 nM per single siRNA. Duration: about 72 h after transfection, including 24 h of drug. Challenge: vorinostat, 2.5 µM final, for 24 h. Measured: 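Live-cell fluorescent viability and luminescent caspase 3/7 activity after vorinostat treatment, background subtracted, mean of duplicate plates, as fold change over mock-transfected wells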. Reading the numbers: viability relative to mock: higher = more living cells than mock; caspase activity relative to mock: higher = more apoptosis than mock. Active means: 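Active means a reduced-viability or caspase-activation class, anything else inactive; classes could only be given to wells that looked healthy when left untreated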.
Shown is an unselected part of about 1,800 deposited reagents. In the full data, 732 (41%) are marked active. 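Calls are per siRNA reagent; a gene was deemed confirmed only if most of its four siRNAs scored.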 The numbers tell different reagents against one gene apart.

Target gene | reagent | viability relative to mock | caspase activity relative to mock | viability hit class | caspase hit class | call
CES3 (GeneID 23491) | 1 | 0.55 | 3.69 | reduced viability | caspase activation | active
CES3 (GeneID 23491) | 2 | 0.72 | 1.56 | no change | no change | inactive
CES3 (GeneID 23491) | 3 | 0.72 | 1.68 | no change | no change | inactive
CES3 (GeneID 23491) | 4 | 0.17 | 2.3 | reduced viability | no change | active
PCOLCE2 (GeneID 26577) | 1 | 0.96 | 1.74 | no change | no change | inactive
PCOLCE2 (GeneID 26577) | 2 | 0.46 | 5.72 | reduced viability | caspase activation | active
PCOLCE2 (GeneID 26577) | 3 | 0.66 | 4.12 | no change | caspase activation | active
PCOLCE2 (GeneID 26577) | 4 | 0.85 | 2.02 | no change | no change | inactive
SYVN1 (GeneID 84447) | 1 | 0.96 | 1.38 | no change | no change | inactive
SYVN1 (GeneID 84447) | 2 | 0.89 | 2.08 | no change | no change | inactive
SYVN1 (GeneID 84447) | 3 | 0.78 | 1.62 | no change | no change | inactive
SYVN1 (GeneID 84447) | 4 | 0.94 | 1.36 | no change | no change | inactive
TMEM203 (GeneID 94107) | 1 | 0.9 | 0.97 | no change | no change | inactive
TMEM203 (GeneID 94107) | 2 | 0.74 | 2.76 | no change | caspase activation | active
TMEM203 (GeneID 94107) | 3 | 0.96 | 0.92 | no change | no change | inactive
TMEM203 (GeneID 94107) | 4 | 0.76 | 2.6 | no change | caspase activation | active
RHBDD3 (GeneID 25807) | 1 | 0.58 | 1.82 | no change | no change | inactive
RHBDD3 (GeneID 25807) | 2 | 0.72 | 1.56 | no change | no change | inactive
RHBDD3 (GeneID 25807) | 3 | 0.75 | 4 | no change | caspase activation | active
RHBDD3 (GeneID 25807) | 4 | 0.85 | 2.11 | no change | no change | inactive
MED26 (GeneID 9441) | 1 | 0.32 | 3.41 | reduced viability | caspase activation | active
MED26 (GeneID 9441) | 2 | 0.3 | 4.34 | reduced viability | caspase activation | active
MED26 (GeneID 9441) | 3 | 0.6 | 2.53 | no change | no change | inactive
MED26 (GeneID 9441) | 4 | 0.52 | 5.06 | reduced viability | caspase activation | active
XKR6 (GeneID 286046) | 1 | 1.02 | 0.99 | no change | no change | inactive
XKR6 (GeneID 286046) | 2 | 0.24 | 2.79 | reduced viability | caspase activation | active
XKR6 (GeneID 286046) | 3 | 0.78 | 2.02 | no change | no change | inactive
XKR6 (GeneID 286046) | 4 | 0.73 | 1.83 | no change | no change | inactive
TECTB (GeneID 6975) | 1 | 0.57 | 1.31 | no change | no change | inactive
TECTB (GeneID 6975) | 2 | 0.28 | 1.67 | reduced viability | no change | active
TECTB (GeneID 6975) | 3 | 1.02 | 0.84 | no change | no change | inactive
TECTB (GeneID 6975) | 4 | 0.86 | 2.4 | no change | no change | inactive
CEP44 (GeneID 80817) | 1 | 0.96 | 1.22 | no change | no change | inactive
CEP44 (GeneID 80817) | 2 | 0.76 | 0.87 | no change | no change | inactive
CEP44 (GeneID 80817) | 3 | 0.94 | 1.06 | no change | no change | inactive
CEP44 (GeneID 80817) | 4 | 0.38 | 5.87 | reduced viability | caspase activation | active
ZNF48 (GeneID 197407) | 1 | 0.83 | 0.69 | no change | no change | inactive
ZNF48 (GeneID 197407) | 2 | 0.52 | 4.11 | no change | no change | inactive
ZNF48 (GeneID 197407) | 3 | 0.93 | 2 | no change | no change | inactive
ZNF48 (GeneID 197407) | 4 | 0.75 | 1.36 | no change | no change | inactive
TTC33 (GeneID 23548) | 1 | 0.38 | 0.85 | no change | no change | inactive
TTC33 (GeneID 23548) | 2 | 0.74 | 1.81 | no change | no change | inactive
TTC33 (GeneID 23548) | 3 | 0.7 | 0.48 | no change | no change | inactive
TTC33 (GeneID 23548) | 4 | 0.84 | 0.89 | no change | no change | inactive
KRTAP27-1 (GeneID 643812) | 1 | 0.9 | 1.62 | no change | no change | inactive
KRTAP27-1 (GeneID 643812) | 2 | 0.59 | 2.73 | no change | caspase activation | active
KRTAP27-1 (GeneID 643812) | 3 | 0.47 | 2.36 | no change | no change | inactive
KRTAP27-1 (GeneID 643812) | 4 | 0.68 | 2.85 | no change | caspase activation | active

Ordered by “viability relative to mock” (low to high): some entries from above
Target gene | reagent | viability relative to mock | caspase activity relative to mock | viability hit class | caspase hit class | call
XKR6 (GeneID 286046) | 2 | 0.24 | 2.79 | reduced viability | caspase activation | active
TECTB (GeneID 6975) | 2 | 0.28 | 1.67 | reduced viability | no change | active
MED26 (GeneID 9441) | 2 | 0.3 | 4.34 | reduced viability | caspase activation | active
MED26 (GeneID 9441) | 1 | 0.32 | 3.41 | reduced viability | caspase activation | active
MED26 (GeneID 9441) | 4 | 0.52 | 5.06 | reduced viability | caspase activation | active
TECTB (GeneID 6975) | 1 | 0.57 | 1.31 | no change | no change | inactive
MED26 (GeneID 9441) | 3 | 0.6 | 2.53 | no change | no change | inactive
XKR6 (GeneID 286046) | 4 | 0.73 | 1.83 | no change | no change | inactive
XKR6 (GeneID 286046) | 3 | 0.78 | 2.02 | no change | no change | inactive
XKR6 (GeneID 286046) | 1 | 1.02 | 0.99 | no change | no change | inactive
TECTB (GeneID 6975) | 3 | 1.02 | 0.84 | no change | no change | inactive

The listing continues.
Target gene | reagent | viability relative to mock | caspase activity relative to mock | viability hit class | caspase hit class | call
BNIP2 (GeneID 663) | 1 | 1.09 | 1 | no change | no change | inactive
BNIP2 (GeneID 663) | 2 | 0.53 | 2.17 | reduced viability | no change | active
BNIP2 (GeneID 663) | 3 | 0.92 | 3.62 | no change | caspase activation | active
BNIP2 (GeneID 663) | 4 | 0.8 | 2.15 | no change | no change | inactive
KIAA1143 (GeneID 57456) | 1 | 0.9 | 1.09 | no change | no change | inactive
KIAA1143 (GeneID 57456) | 2 | 0.66 | 2.22 | no change | no change | inactive
KIAA1143 (GeneID 57456) | 3 | 0.75 | 5.42 | no change | caspase activation | active
KIAA1143 (GeneID 57456) | 4 | 0.39 | 1.4 | reduced viability | no change | active
ANGPT1 (GeneID 284) | 1 | 0.6 | 2.66 | no change | caspase activation | active
ANGPT1 (GeneID 284) | 2 | 0.94 | 1.6 | no change | no change | inactive
ANGPT1 (GeneID 284) | 3 | 0.38 | 3.37 | reduced viability | caspase activation | active
ANGPT1 (GeneID 284) | 4 | 0.95 | 1.25 | no change | no change | inactive
ARL14 (GeneID 80117) | 1 | 0.5 | 2.82 | reduced viability | caspase activation | active
ARL14 (GeneID 80117) | 2 | 0.8 | 1.29 | no change | no change | inactive
ARL14 (GeneID 80117) | 3 | 0.97 | 1.36 | no change | no change | inactive
ARL14 (GeneID 80117) | 4 | 0.72 | 1.12 | no change | no change | inactive
TAC4 (GeneID 255061) | 1 | 1.02 | 2.79 | no change | caspase activation | active
TAC4 (GeneID 255061) | 2 | 0.9 | 1.22 | no change | no change | inactive
TAC4 (GeneID 255061) | 3 | 0.8 | 1.35 | no change | no change | inactive
TAC4 (GeneID 255061) | 4 | 0.52 | 4.58 | reduced viability | caspase activation | active
MXD1 (GeneID 4084) | 1 | 0.82 | 1.37 | no change | no change | inactive
MXD1 (GeneID 4084) | 2 | 0.78 | 1.61 | no change | no change | inactive
MXD1 (GeneID 4084) | 3 | 0.62 | 2.21 | no change | no change | inactive
MXD1 (GeneID 4084) | 4 | 0.38 | 3.06 | reduced viability | caspase activation | active
MLIP (GeneID 90523) | 1 | 0.34 | 3.4 | reduced viability | caspase activation | active
MLIP (GeneID 90523) | 2 | 1.03 | 1.03 | no change | no change | inactive
MLIP (GeneID 90523) | 3 | 0.46 | 4.1 | no change | no change | inactive
MLIP (GeneID 90523) | 4 | 0.88 | 2.84 | no change | caspase activation | active
